Data reported in PubChem BioAssay AID652054 (National Center for Advancing Translational Sciences (NCATS), 2013).
“And” between values parts separate entries of the source, which are not always exact repeats. Identical values can stand only once. About 9,100 (2.5%) of roughly 360,000 compounds were called active. The shares of active, inactive and inconclusive entries below differ from those in the screen. Rule as the data show it: active = max response below about -50%; inconclusive = no clear call, values can overlap the other calls; inactive = above that.

Amino acid sequences for entries named in this document (tags omitted).
UniProt P35462, whole entry, looked up: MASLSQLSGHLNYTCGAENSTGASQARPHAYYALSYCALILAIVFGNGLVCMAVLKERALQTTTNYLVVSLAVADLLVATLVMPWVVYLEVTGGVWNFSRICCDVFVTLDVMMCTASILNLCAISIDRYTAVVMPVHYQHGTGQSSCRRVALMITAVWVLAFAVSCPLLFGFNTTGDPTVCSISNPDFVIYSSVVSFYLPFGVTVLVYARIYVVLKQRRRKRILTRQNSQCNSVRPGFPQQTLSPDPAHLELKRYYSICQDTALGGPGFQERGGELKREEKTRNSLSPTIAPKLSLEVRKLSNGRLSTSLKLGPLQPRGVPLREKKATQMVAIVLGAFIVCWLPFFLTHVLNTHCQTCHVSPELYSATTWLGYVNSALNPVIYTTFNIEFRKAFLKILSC

Molecular target: D(3) dopamine receptor (Homo sapiens) (UniProt P35462)
Test: qHTS of D3 Dopamine Receptor Antagonist: qHTS
Settings: D3R cells, DiscoveRx beta-arrestin luminescence, antagonist mode; hits give low values
Outline: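 Cells plated overnight at 1500 cells/well, then exposed to library compounds with dopamine controls for 90 minutes at 37 degrees C. DiscoveRx reagent added for 30–60 minutes at room temperature; luminescence read, quantitative HTS format.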
% is scaled to controls: 0 for no effect and ±100 for the full control effect.

SMILES	max response, negative = inhibition
Cn1c(SCC(=O)NCC2CCCO2)ncc(C(=O)Nc2ccccc2)c1=O (stereo not given)	inconclusive: -37.2%
Cc1cc(C(=O)NCc2cccnc2)no1	inactive: 26.7%
CCc1nc2ccc(C(=O)N3CCN(c4ccccc4)CC3)cn2c1N(C)CCCc1ccccc1	inactive: -6.66%
C=CCn1c(SCC(=O)NCc2ccco2)nc2sc3c(c2c1=O)CCCC3	inactive: -5.62%
COC(=O)c1ccccc1NC(=O)CN(Cc1ccccc1)S(C)(=O)=O	inconclusive: -40.8%
CCOC(=O)C1(CC2CCCCO2)CCN(Cc2cc3ccccc3[nH]2)CC1 (stereo not given)	inconclusive: -48%
CC(=O)N1c2ccc(S(=O)(=O)N3CCC(C(=O)N4CC(C)CC(C)C4)CC3)cc2CC1C (stereo not given)	inactive: -0.591%
CN(C)CCCNC(=O)c1ccc(Cl)c(S(=O)(=O)N2CCCCCC2)c1	inconclusive: -36.2%
CCOC(=O)c1cc(C(=O)NN)c(C)nc1C	inconclusive: -33.6%
Cc1ccc(NC(=S)NNc2ncc(C(F)(F)F)cc2Cl)c(C)c1	active: -53.5%
O=C(c1ccc(Cl)c([N+](=O)[O-])c1)N(Cc1cccc(Cl)c1)C1CCS(=O)(=O)C1 (stereo not given)	inconclusive: -35.4%
C=CCc1cccc(CNc2c(C)n(C)n(-c3ccccc3)c2=O)c1O	inconclusive: -39%
O=C(CCCCCN1C(=O)CCC1=O)NCc1ccccc1	inconclusive: -35.7%
COC(=O)C1CCCN1S(=O)(=O)c1ccc2ccccc2c1 (stereo not given)	inconclusive: -30.3%
COc1cc2cc(CN(CCN3CCCC3)C(=O)Nc3ccccc3Cl)c(=O)[nH]c2cc1OC	inconclusive: -31.9%
Cc1occc1-c1nnc(SCC(=O)NCCc2ccccc2)n1Cc1ccccc1	inconclusive: -30.9%
Nc1nc(SCC(=O)NC2CCCCC2)[nH]c(=O)c1-c1ccccc1	inactive: -19.8%
O=C(N/N=C/c1ccccn1)c1cc(-c2ccccc2)nc2ccccc12	inactive: 0%
Cc1ccc(C(=O)N/C(=C\c2cccs2)c2nc3ccccc3[nH]2)cc1	inconclusive: -38.6%
NC(=O)c1[nH]cnc1N	inactive: -11.2% and inactive: 0%
O=C(NC1CC1)C1=C[C@@H](c2c[nH]c3ccccc23)C[C@@H](OCc2ccc(CO)cc2)O1	active: -52.6%
O=C1C(Cl)=C(NCCN2CCCCC2)C(=O)c2ccccc21	active: -63.2%
O=C1C=CC(=O)c2c(O)c(CO)c(CO)c(O)c21	inconclusive: -33.2%
COc1ccc(CN2CCCC(C(=O)Nc3cccc(-n4cnnn4)c3)C2)c(C)c1C (stereo not given)	inconclusive: -38.1%
Cc1ccc(S(=O)(=O)N(CC(=O)NC2CCCC2)c2cccc(C)c2)cc1	inconclusive: -37.3%
CC1CCN(CC2C(=O)O[C@@H]3C[C@@]4(C)CCC[C@H](C)C4=C[C@H]23)CC(C)(C)C1 (stereo not given in full)	inconclusive: -36.8%
CCC(C)N1C(=O)CCC1C(=O)N1CCN(c2ccccc2F)CC1 (stereo not given)	inconclusive: -37.3%
Cc1ccc(Nc2nc(N)c([N+](=O)[O-])c(N3CCC(C)CC3)n2)cc1C	inactive: -5.03%

SMILES	max response, negative = inhibition
O=C(NCC1CCCO1)c1ccc(S(=O)(=O)N2CCC(c3nc4ccc(Cl)cc4[nH]3)CC2)cc1 (stereo not given)	active: -61.9%
COc1ccc(C2=Nc3ccc(Br)cc3C(c3ccccc3)N2CC(=O)NN)cc1 (stereo not given)	active: -92.8%
CC(C)C(NS(=O)(=O)c1ccccc1F)C(=O)N1CCc2ccccc2C1 (stereo not given)	inactive: 7.56%
Cc1ccc(-c2cc3ncc(C#N)c(N)n3n2)cc1	inactive: -11%
O=C(Nc1c(-c2ccc(Cl)cc2)[nH][nH]c1=O)c1ccccc1Cl	inconclusive: -30.1%
COc1ccc(/C=C/C(=O)OCC(=O)NC(=O)NC(C)(C)C)cc1	inactive: -9.61%
COc1ccc(C2C=C(C34CC5CC(CC(C5)C3)C4)NC(=S)N2)cc1OC (stereo not given)	inconclusive: -48.5%
Cc1ccc(Sc2nnc(Cc3ccccc3)c3ccccc23)cc1	active: -50.6%
COc1ccc(NC(=O)CCNS(=O)(=O)c2cccc3nsnc23)cc1OC	inconclusive: -37.3%
COc1ccccc1N1CCN(C2CCCN(C(=O)c3ccsc3)C2)CC1 (stereo not given)	inconclusive: -49.5%
Cc1nn(C(C)(C)C)c(OC(=O)C2CCCC2)c1S(=O)(=O)c1ccccc1	inactive: 0.828%
COC(=O)c1csc(C2OC(CO)C(O)C2O)n1 (stereo not given)	inactive: 23.7%
CCOC(=O)C1=C(CN2CCCCCC2)NC(=O)NC1c1ccc2c(c1)OCO2 (stereo not given)	inactive: 1.29%
Cc1cccc(CN2CCN(CC(=O)O)C2=O)c1	active: -109%
COc1ccccc1N1CCN(C2=CC(=O)CCC2)CC1	inconclusive: -42%
COc1ccc(C(=O)COC(=O)c2ccccc2C(=O)N(C)c2ccccc2)c(OC)c1	inconclusive: -46.5%
CCN1CCN(c2nc(N(C)c3ccccc3)nc(N)c2[N+](=O)[O-])CC1	inconclusive: -40.5%
O=C(CN1CCN(c2ccc(O)cc2)CC1)N1CCc2ccccc21	inconclusive: -40.1%
O=C(CCN1CCc2ccccc2C(c2ccccc2)C1)c1ccc2c(c1)OCCO2 (stereo not given)	inconclusive: -49.1%
CCOc1ccc(NC(C)c2cc(Cl)ccc2O)cc1 (stereo not given)	active: -52.3%
CCc1nc2c(OCc3ccc(S(C)(=O)=O)cc3)cccn2c1N(C)C(=O)c1ccccc1F	inactive: 0%
C#CCOCCOCCOCCNc1nc(N2CCOCC2)nc(N2CCN(C(=O)[C@H]([C@@H](C)CC)n3cc(CCCN=C(N)N)nn3)CC2)n1	inconclusive: -47.2%
CC(C)(C)OC(=O)C[C@@H]1C/C=C\C[C@H](CC(=O)N(CCO)Cc2ccccc2)C(=O)NC[C@@H](c2ccccc2)OC1=O	active: -95.5%
Oc1c(Br)cc(Br)cc1/C=N/N1CCN(Cc2ccccc2)CC1	active: -80.4%
O=C1O[C@@H](c2ccccc2)C[C@@H](O)[C@H](O)CCCCc2ccccc21	inactive: 0%
COc1ccc(OC)c(NC(=O)CN2C(=O)c3ccccc3S2(=O)=O)c1	inconclusive: -34.1%
CN(C)S(=O)(=O)N(CC(=O)Nc1ccccc1)c1ccccc1	active: -54%
